Common to all, as to assay: EMSA
(Mobility shift assays separate free from complexed probe on a gel.)

Data set [1] has as its target T1, Mtr4p wild type (Saccharomyces cerevisiae) (UniProt P47047).
T1 sequence (looked up, limits assumed): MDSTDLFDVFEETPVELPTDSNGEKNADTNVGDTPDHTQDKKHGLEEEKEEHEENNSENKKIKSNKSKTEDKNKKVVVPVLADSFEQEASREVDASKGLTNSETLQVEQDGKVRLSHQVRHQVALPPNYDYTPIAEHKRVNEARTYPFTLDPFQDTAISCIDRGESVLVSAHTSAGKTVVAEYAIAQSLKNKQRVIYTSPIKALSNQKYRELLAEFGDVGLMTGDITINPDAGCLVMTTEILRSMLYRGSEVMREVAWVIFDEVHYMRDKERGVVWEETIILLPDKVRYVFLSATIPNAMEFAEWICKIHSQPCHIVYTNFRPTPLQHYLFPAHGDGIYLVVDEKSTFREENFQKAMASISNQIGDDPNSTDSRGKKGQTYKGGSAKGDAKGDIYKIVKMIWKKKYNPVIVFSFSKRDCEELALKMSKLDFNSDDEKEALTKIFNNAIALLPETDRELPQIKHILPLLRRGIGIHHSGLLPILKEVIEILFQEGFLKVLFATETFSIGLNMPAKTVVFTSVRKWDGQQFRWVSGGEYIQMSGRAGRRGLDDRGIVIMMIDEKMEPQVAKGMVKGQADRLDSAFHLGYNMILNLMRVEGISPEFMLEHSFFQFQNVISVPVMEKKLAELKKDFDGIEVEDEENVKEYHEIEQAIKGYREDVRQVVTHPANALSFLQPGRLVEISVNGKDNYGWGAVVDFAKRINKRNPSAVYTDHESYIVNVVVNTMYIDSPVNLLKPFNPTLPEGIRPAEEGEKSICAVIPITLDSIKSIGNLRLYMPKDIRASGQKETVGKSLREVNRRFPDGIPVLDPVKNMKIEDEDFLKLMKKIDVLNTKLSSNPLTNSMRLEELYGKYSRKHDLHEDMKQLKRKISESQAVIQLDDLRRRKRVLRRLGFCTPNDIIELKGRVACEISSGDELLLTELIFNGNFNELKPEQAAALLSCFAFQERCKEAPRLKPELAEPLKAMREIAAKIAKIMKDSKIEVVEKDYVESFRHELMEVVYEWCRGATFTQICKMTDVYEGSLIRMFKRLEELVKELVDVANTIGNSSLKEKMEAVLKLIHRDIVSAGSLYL
To be noted: no ATP or Mg2+ listed, 1 mM EDTA; EMSA: 0.5 nM RNA, 10 mM Tris pH 7.5, 1 mM EDTA, 100 mM KCl, 0.1 mM DTT, 5% glycerol, 1% NP40, on ice 30 min; 5% native PAGE at 4 C; recombinant protein; protein details: His (His60 Ni purification); label: 5' 32P on R4 (top strand).

The target of data set [2] is T2, Mtr4p-K904N (Saccharomyces cerevisiae) (UniProt P47047).
T2 sequence (looked up, limits assumed): T1 sequence (looked up, limits assumed) with K904N
As to conditions: no ATP or Mg2+ listed, 1 mM EDTA, complex reduced with smearing, free RNA similar to wild type; EMSA: 0.5 nM RNA, 10 mM Tris pH 7.5, 1 mM EDTA, 100 mM KCl, 0.1 mM DTT, 5% glycerol, 1% NP40, on ice 30 min; 5% native PAGE at 4 C; recombinant protein; protein details: His (His60 Ni purification); label: 5' 32P on R4 (top strand).

Data set [3] deals with T3, Mtr4p-R1030G (Saccharomyces cerevisiae) (UniProt P47047).
T3 sequence (looked up, limits assumed): T1 sequence (looked up, limits assumed) with R1030G
To be noted: no ATP or Mg2+ listed, 1 mM EDTA; EMSA: 0.5 nM RNA, 10 mM Tris pH 7.5, 1 mM EDTA, 100 mM KCl, 0.1 mM DTT, 5% glycerol, 1% NP40, on ice 30 min; 5% native PAGE at 4 C; recombinant protein; protein details: His (His60 Ni purification); label: 5' 32P on R4 (top strand).

Data on one sequence can be found in PMC4731217, “Mutations in Mtr4 Structural Domains Reveal Their Important Role in Regulating tRNAiMet Turnover in Saccharomyces cerevisiae and Mtr4p Enzymatic Activities In Vitro”.

Positions count from the first letter of the chain named. The exact form of at least one protein or probe is not confirmed. For part of these data: A weaker result is weaker than the reference pair of the same experiment. Protein sequences can lack the tags named with them. For part of these data: At least one verdict was read from the data and is not stated in words by the source.

With “AGCACCGUAAAGACGC / GCGUCUUUACGGUGCUAGCUUA [R1-4 RNA duplex (R4 top / R1 bottom)]”, the binding result in data set [1] is “binds”; in data set [2], “binds more weakly”; in data set [3], “binds more weakly”.
